Compound in this test: Nc1ncnc2c1ncn2[C@@H]1O[C@H](COP(=O)(O)OP(=O)(O)NP(=O)(O)O)[C@@H](O)[C@H]1O [adenylyl imidodiphosphate]
Briefly: NP40-soluble protein abundance relative to vehicle (solubility fold change) (ratio); higher = more soluble protein in presence of AMP-PNP. A digest of the protocol:
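Values are fold changes against the detergent-processed vehicle, based on vsn-normalised intensities. Jurkat crude lysate was treated at eight concentrations from 0.1 to 10 mM (10 min at room temperature, then 3 min at 37 °C), solubilised with 0.8% NP40 and benzonase, ultracentrifuged and analysed by TMT-labelled LC-MS/MS over three independent experiments.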

Protein sequences, listed by entry. Tags and fused reporters are not part of them. Lines headed by an entry give the natural chain unless they say otherwise; changes in a name come on top.
UniProt Q06265, whole entry: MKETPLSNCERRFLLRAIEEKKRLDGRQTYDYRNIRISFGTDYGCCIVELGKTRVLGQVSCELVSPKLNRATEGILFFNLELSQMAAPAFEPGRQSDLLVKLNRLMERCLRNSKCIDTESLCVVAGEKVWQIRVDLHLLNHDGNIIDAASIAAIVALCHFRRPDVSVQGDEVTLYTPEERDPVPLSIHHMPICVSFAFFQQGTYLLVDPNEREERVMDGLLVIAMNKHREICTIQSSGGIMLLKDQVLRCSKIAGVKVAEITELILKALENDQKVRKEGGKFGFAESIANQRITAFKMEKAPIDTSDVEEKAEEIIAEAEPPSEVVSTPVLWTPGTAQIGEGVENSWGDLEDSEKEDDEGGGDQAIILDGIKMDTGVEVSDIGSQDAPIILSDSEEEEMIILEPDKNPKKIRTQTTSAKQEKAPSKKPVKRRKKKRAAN
UniProt P62879, whole entry: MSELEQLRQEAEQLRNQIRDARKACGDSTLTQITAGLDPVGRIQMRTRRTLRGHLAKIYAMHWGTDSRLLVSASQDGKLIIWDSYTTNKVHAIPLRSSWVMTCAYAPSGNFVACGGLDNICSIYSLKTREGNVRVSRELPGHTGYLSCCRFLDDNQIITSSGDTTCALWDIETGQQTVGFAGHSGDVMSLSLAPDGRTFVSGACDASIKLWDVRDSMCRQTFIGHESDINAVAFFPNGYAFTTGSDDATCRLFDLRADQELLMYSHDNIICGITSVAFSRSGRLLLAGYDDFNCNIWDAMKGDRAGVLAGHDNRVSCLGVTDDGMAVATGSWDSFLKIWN
UniProt Q06136: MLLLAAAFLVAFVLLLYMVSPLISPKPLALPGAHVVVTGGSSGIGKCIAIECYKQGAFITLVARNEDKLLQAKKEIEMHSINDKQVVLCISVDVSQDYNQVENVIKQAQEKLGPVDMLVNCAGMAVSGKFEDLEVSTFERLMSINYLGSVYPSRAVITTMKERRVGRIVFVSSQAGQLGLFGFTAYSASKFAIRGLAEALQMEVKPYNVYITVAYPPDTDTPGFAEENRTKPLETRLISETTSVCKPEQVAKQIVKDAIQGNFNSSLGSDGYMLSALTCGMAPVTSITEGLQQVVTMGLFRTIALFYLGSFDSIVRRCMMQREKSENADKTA
UniProt Q01543: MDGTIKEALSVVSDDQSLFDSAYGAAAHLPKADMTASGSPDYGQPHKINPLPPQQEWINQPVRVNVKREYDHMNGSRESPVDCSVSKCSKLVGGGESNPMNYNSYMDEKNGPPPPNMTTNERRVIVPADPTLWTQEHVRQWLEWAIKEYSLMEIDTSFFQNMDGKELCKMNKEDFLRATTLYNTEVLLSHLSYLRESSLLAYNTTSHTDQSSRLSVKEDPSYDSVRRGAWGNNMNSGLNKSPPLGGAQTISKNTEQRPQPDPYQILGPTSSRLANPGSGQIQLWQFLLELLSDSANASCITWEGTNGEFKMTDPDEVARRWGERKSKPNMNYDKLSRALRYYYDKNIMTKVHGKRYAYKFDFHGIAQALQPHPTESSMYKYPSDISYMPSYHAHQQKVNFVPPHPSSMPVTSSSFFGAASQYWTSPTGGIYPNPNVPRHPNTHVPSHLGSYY
UniProt Q01780: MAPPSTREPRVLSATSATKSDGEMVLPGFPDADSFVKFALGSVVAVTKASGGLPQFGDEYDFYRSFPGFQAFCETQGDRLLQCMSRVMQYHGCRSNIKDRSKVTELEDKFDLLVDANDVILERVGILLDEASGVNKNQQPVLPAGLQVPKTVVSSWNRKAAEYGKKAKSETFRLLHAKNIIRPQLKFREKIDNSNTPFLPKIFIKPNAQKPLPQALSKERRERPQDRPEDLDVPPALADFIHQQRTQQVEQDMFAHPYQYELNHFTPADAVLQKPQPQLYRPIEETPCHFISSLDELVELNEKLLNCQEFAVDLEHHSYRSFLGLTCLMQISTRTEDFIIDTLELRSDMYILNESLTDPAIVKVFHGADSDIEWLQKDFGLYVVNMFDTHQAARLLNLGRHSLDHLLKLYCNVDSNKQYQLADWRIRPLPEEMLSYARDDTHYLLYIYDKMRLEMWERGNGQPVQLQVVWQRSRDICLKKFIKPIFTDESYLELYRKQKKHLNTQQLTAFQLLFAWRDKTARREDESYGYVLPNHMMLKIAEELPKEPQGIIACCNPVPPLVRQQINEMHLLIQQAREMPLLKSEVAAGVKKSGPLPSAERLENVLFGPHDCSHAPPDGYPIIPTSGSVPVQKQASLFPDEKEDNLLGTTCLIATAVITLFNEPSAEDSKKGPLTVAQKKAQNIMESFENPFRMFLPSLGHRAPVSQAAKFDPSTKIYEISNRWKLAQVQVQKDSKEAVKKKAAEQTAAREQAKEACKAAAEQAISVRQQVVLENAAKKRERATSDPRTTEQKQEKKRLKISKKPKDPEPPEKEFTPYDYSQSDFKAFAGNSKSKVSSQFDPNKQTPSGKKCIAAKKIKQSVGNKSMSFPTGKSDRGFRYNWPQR
UniProt P98082: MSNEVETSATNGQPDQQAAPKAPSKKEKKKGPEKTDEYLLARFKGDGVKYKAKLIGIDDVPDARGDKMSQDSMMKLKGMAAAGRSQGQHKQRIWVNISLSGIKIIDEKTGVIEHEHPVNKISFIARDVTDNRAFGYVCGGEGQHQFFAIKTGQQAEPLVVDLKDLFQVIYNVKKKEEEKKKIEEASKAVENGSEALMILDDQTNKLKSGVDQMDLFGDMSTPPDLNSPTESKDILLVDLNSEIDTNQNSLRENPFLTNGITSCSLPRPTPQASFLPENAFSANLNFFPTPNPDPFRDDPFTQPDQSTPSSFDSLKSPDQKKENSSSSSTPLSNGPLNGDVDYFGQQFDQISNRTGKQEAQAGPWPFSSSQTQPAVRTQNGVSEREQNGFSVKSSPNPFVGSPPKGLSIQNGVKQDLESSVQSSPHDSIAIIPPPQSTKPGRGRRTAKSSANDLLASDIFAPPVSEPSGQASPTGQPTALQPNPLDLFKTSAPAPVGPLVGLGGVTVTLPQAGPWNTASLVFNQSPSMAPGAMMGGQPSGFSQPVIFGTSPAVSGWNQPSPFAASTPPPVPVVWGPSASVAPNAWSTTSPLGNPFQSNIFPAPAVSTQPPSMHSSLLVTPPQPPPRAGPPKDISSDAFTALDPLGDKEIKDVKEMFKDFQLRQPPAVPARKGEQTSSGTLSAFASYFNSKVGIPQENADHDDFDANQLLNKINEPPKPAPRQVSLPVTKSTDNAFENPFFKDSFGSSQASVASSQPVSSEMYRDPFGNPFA
UniProt Q06945: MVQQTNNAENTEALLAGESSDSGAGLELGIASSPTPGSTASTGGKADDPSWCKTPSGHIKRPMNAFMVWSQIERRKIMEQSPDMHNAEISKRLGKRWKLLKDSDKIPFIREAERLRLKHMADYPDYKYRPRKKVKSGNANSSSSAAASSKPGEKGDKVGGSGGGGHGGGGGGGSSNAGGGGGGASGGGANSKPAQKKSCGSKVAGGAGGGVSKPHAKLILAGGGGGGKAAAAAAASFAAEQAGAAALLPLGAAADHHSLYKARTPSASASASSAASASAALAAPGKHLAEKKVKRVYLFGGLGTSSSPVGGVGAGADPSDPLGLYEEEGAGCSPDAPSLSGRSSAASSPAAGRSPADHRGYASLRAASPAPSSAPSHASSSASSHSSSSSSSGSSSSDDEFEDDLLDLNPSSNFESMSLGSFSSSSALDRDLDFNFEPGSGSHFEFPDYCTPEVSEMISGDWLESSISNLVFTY
UniProt P63167, whole entry: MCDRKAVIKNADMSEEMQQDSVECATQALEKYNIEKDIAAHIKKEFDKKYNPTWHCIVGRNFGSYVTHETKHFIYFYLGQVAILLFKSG
UniProt P57088: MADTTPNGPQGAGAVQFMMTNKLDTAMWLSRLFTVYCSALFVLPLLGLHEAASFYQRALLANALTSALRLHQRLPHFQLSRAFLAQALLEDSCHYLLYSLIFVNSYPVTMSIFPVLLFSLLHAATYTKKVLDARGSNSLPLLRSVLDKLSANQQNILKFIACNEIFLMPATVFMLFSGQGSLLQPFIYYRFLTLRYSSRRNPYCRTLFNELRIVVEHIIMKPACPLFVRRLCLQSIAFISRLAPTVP
UniProt P62328: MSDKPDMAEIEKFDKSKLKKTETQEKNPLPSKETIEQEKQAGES
UniProt P56181: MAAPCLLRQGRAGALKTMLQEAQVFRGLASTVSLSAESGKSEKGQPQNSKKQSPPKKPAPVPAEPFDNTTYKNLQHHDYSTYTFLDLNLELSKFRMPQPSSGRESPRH
UniProt P61026: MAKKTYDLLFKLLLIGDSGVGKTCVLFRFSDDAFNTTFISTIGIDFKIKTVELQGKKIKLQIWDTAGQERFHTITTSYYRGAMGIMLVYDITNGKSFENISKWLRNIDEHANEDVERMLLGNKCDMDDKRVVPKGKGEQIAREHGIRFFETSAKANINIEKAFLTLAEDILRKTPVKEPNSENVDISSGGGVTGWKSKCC
UniProt P78371: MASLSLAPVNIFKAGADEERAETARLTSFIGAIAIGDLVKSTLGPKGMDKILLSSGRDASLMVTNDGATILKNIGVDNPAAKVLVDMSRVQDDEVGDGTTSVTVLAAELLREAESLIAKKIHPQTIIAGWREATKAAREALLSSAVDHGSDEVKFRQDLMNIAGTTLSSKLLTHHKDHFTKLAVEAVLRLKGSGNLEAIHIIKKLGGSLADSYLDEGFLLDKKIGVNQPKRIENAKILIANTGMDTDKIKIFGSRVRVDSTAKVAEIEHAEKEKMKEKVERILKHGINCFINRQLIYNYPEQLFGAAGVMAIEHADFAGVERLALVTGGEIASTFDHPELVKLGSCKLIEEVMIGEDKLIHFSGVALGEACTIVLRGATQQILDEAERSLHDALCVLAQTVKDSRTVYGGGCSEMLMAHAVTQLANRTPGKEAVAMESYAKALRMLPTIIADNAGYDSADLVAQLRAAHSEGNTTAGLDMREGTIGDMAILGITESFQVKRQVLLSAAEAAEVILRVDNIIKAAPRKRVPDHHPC
UniProt P56589: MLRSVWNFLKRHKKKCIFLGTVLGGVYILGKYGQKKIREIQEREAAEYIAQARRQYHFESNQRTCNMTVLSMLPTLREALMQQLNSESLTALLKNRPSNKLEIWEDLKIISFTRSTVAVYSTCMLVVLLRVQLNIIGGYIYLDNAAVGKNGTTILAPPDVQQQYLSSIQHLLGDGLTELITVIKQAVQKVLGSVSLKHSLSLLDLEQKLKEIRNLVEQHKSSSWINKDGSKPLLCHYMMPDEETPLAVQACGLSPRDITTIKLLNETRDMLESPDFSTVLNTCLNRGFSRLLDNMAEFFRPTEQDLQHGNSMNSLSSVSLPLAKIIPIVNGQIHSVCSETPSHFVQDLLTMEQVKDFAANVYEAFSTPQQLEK
UniProt P61586, whole entry: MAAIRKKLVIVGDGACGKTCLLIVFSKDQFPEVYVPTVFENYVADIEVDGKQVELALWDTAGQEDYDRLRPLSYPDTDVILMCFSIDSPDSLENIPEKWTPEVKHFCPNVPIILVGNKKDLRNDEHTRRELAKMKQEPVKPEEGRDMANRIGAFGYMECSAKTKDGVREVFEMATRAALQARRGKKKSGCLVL

± gives the standard deviation of the averaged measurements. The list shows a part of the results, in another mix than the full data.

UniProt Q06265 and related entries: the NP40-soluble protein abundance reads like this: (concentration: 1mM) 0.978 ± 0.04; (concentration: 2mM) 0.95 ± 0.031; (concentration: 4mM) 1.08 ± 0.1; (concentration: 6mM) 1.14 ± 0.092; (concentration: 8mM) 1.22 ± 0.11; (concentration: 10mM) 1.23 ± 0.17.
For UniProt P62879, the NP40-soluble protein abundance worked out at 0.985 ± 0.022 (concentration: 1mM); 0.954 ± 0.054 (concentration: 2mM); 0.984 ± 0.018 (concentration: 4mM); 1.01 ± 0.043 (concentration: 6mM); 1.02 ± 0.036 (concentration: 8mM); 0.964 ± 0.04 (concentration: 10mM).
UniProt Q06136 and related entries: the NP40-soluble protein abundance by setting is: (concentration: 1mM) 1.03 ± 0.043; (concentration: 2mM) 1.02 ± 0.051; (concentration: 4mM) 0.995 ± 0.062; (concentration: 6mM) 0.9914 ± 0.0082; (concentration: 8mM) 1 ± 0.035; (concentration: 10mM) 0.991 ± 0.068.
In the case of FLI1 (UniProt Q01543), the NP40-soluble protein abundance is, setting by setting: (concentration: 1mM) 1.05 ± 0.025; (concentration: 2mM) 1.1 ± 0.049; (concentration: 4mM) 1.08 ± 0.041; (concentration: 6mM) 1.04 ± 0.029; (concentration: 8mM) 1.05 ± 0.023; (concentration: 10mM) 1.07 ± 0.049.
As for EXOSC10 (UniProt Q01780), the NP40-soluble protein abundance (concentration: 1mM) turned out to be 1.06 ± 0.044; the NP40-soluble protein abundance (concentration: 2mM) is 1.11 ± 0.021; the NP40-soluble protein abundance (concentration: 4mM) turned out to be 1.17 ± 0.066; the NP40-soluble protein abundance (concentration: 6mM) was 1.24 ± 0.11; the NP40-soluble protein abundance (concentration: 8mM) was 1.23 ± 0.1; the NP40-soluble protein abundance (concentration: 10mM) came to 1.32 ± 0.11.
Take UniProt P98082 and related entries: the NP40-soluble protein abundance came out at 1.016 ± 0.0042 (concentration: 1mM); 1.03 ± 0.042 (concentration: 2mM); 1.042 ± 0.0097 (concentration: 4mM); 1.016 ± 0.004 (concentration: 6mM); 1.017 ± 0.0048 (concentration: 8mM); 1.035 ± 0.0064 (concentration: 10mM).
On to SOX4 (UniProt Q06945), for which the NP40-soluble protein abundance reads like this: (concentration: 1mM) 1.03 ± 0.025; (concentration: 2mM) 1.07 ± 0.07; (concentration: 4mM) 1.04 ± 0.017; (concentration: 6mM) 1.04 ± 0.025; (concentration: 8mM) 1.04 ± 0.042; (concentration: 10mM) 1.06 ± 0.017.
On to UniProt P63167, for which the NP40-soluble protein abundance came out at 1.01 ± 0.026 (concentration: 1mM); 1.04 ± 0.052 (concentration: 2mM); 0.958 ± 0.044 (concentration: 4mM); 0.97 ± 0.019 (concentration: 6mM); 0.995 ± 0.041 (concentration: 8mM); 0.95878 ± 0.00021 (concentration: 10mM).
TMEM33 (UniProt P57088): the NP40-soluble protein abundance was found to be 0.962 ± 0.042 (concentration: 1mM); 0.925 ± 0.031 (concentration: 2mM); 0.989 ± 0.066 (concentration: 4mM); 1.09 ± 0.11 (concentration: 6mM); 1.15 ± 0.097 (concentration: 8mM); 1.1 ± 0.079 (concentration: 10mM).
Turning to TMSB4X (UniProt P62328), the NP40-soluble protein abundance stood at 1.07 ± 0.056 (concentration: 1mM); 0.999 ± 0.08 (concentration: 2mM); 1 ± 0.073 (concentration: 4mM); 0.935 ± 0.14 (concentration: 6mM); 0.843 ± 0.083 (concentration: 8mM); 0.905 ± 0.12 (concentration: 10mM).
With UniProt P56181 and related entries, the NP40-soluble protein abundance (concentration: 1mM) came to 1 ± 0.064; the NP40-soluble protein abundance (concentration: 2mM) worked out at 1.06 ± 0.012; the NP40-soluble protein abundance (concentration: 4mM) is 0.986 ± 0.06; the NP40-soluble protein abundance (concentration: 6mM) was found to be 0.971 ± 0.083; the NP40-soluble protein abundance (concentration: 8mM) turned out to be 0.931 ± 0.066; the NP40-soluble protein abundance (concentration: 10mM) is 0.968 ± 0.066.
As to “UniProt Q02078-2|Q02078-4|Q02078-6|Q02078-5”, the NP40-soluble protein abundance is, setting by setting: (concentration: 1mM) 1.0199 ± 0.0007; (concentration: 2mM) 1.03 ± 0.017; (concentration: 4mM) 1.023 ± 0.0072; (concentration: 6mM) 0.98 ± 0.014; (concentration: 8mM) 0.9784 ± 0.0097; (concentration: 10mM) 0.98 ± 0.053.
On to UniProt P61026, for which the NP40-soluble protein abundance is, setting by setting: (concentration: 1mM) 0.927 ± 0.039; (concentration: 2mM) 0.888 ± 0.025; (concentration: 4mM) 0.888 ± 0.019; (concentration: 6mM) 0.986 ± 0.075; (concentration: 8mM) 0.944 ± 0.065; (concentration: 10mM) 0.962 ± 0.015.
CCT2 (UniProt P78371): the NP40-soluble protein abundance is, setting by setting: (concentration: 1mM) 0.955 ± 0.035; (concentration: 2mM) 0.916 ± 0.033; (concentration: 4mM) 0.909 ± 0.081; (concentration: 6mM) 0.918 ± 0.086; (concentration: 8mM) 0.905 ± 0.1; (concentration: 10mM) 0.909 ± 0.15.
Regarding PEX3 (UniProt P56589), the NP40-soluble protein abundance runs as follows: (concentration: 1mM) 1 ± 0.039; (concentration: 2mM) 0.998 ± 0.028; (concentration: 4mM) 0.994 ± 0.029; (concentration: 6mM) 0.9633 ± 0.009; (concentration: 8mM) 0.975 ± 0.032; (concentration: 10mM) 0.985 ± 0.015.
In the case of UniProt P62899, the NP40-soluble protein abundance by setting is: (concentration: 1mM) 0.996 ± 0.094; (concentration: 2mM) 0.981 ± 0.05; (concentration: 4mM) 0.968 ± 0.098; (concentration: 6mM) 0.974 ± 0.037; (concentration: 8mM) 0.907 ± 0.045; (concentration: 10mM) 1.04 ± 0.1.
For the target RHOA (UniProt P61586), the NP40-soluble protein abundance (concentration: 1mM) was determined as 1.08 ± 0.025; the NP40-soluble protein abundance (concentration: 2mM) is 1.12 ± 0.14; the NP40-soluble protein abundance (concentration: 4mM) came out at 1.04 ± 0.051; the NP40-soluble protein abundance (concentration: 6mM) is 1.01 ± 0.048; the NP40-soluble protein abundance (concentration: 8mM) turned out to be 0.96 ± 0.01; the NP40-soluble protein abundance (concentration: 10mM) worked out at 1.05 ± 0.049.

The record behind these values is the supplement of paper PMC6411743.
